Literature values as cited in patent publication US8945061B2, “Otic formulations, methods and devices” (Entrx LLC, priority 2012, dated 2015).

Tested on: fungus and bacteria
Details: published literature; cited from earlier work

## O=C(O)c1cn(C2CC2)c2cc(N3CCNCC3)c(F)cc2c1=O [CIPRO, ciprofloxacin]
  Spectrum of Efficacy: gram positive and gram negative bacteria, including listeria,
